The experiment concerns the target FLAG-tagged human BAG3 (human) (UniProt O95817). The experiment can be described thus: co-IP; FLAG-hBAG3 overexpressed in HEK293T; anti-FLAG M2 affinity gel overnight at 4 °C; immunoblotting; untagged hBAG3 as control. For orientation: Immunoblotting shows a protein as a band on a membrane.

Chains of the proteins cited; added tags and fusions are not shown.
UniProt O95817: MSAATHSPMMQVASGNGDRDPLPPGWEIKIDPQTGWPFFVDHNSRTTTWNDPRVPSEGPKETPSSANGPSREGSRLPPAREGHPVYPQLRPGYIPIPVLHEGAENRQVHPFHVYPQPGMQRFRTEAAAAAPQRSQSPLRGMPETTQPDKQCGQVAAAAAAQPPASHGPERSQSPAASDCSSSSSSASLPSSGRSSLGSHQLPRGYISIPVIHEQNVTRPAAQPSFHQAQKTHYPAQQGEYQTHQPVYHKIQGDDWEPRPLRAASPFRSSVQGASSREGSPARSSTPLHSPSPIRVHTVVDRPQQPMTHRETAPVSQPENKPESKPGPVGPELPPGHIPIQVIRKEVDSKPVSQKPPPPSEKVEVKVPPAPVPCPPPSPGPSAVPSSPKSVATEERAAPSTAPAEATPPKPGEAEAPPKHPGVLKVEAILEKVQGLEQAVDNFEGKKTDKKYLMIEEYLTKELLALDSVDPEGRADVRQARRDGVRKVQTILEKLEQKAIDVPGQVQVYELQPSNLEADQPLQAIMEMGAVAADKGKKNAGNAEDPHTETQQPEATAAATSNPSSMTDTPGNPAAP
UniProt P07947: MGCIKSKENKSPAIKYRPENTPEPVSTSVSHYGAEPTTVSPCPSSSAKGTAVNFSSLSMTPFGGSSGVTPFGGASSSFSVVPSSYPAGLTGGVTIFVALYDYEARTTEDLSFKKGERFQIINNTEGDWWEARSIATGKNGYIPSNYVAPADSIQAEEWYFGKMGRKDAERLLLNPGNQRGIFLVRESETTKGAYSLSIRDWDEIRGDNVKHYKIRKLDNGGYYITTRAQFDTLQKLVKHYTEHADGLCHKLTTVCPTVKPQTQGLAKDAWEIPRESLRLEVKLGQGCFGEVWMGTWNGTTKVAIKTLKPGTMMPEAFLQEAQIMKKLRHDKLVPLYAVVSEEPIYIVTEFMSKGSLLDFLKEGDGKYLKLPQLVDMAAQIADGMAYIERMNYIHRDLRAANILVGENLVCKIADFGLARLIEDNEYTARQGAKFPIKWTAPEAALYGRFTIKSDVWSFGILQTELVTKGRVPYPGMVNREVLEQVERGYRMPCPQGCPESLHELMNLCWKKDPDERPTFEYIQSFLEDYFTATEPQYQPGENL

No constants are given. Whether binding was seen depends on the method and setting. Binding seen in cells or lysates may run through a third protein. Some binding calls cover weakened binding; strength is not graded here.

Regarding “tyrosine-protein kinase YES1 (Yamaguchi Sarcoma viral oncogene homologue 1) (from UniProt P07947 1-543)”, the binding result is given as “binds”.

The values are drawn from publication PMC7694386.
